Laboratory results from publication PMC13419597, “An Acetylation-Primed SUMOylation Switch Controls RORβ Stability through a p300-SIRT1 Regulatory Axis” (Research Square, 2024).
No constants are given. Whether binding was seen depends on the method and setting. In cells and extracts the contact can be indirect. Here binding means that the protein was enriched with, or labelled near, the bait; the list need not be complete.

Sequences of proteins named here, by UniProt entry; tags and fusion partners are left off.
UniProt Q09472: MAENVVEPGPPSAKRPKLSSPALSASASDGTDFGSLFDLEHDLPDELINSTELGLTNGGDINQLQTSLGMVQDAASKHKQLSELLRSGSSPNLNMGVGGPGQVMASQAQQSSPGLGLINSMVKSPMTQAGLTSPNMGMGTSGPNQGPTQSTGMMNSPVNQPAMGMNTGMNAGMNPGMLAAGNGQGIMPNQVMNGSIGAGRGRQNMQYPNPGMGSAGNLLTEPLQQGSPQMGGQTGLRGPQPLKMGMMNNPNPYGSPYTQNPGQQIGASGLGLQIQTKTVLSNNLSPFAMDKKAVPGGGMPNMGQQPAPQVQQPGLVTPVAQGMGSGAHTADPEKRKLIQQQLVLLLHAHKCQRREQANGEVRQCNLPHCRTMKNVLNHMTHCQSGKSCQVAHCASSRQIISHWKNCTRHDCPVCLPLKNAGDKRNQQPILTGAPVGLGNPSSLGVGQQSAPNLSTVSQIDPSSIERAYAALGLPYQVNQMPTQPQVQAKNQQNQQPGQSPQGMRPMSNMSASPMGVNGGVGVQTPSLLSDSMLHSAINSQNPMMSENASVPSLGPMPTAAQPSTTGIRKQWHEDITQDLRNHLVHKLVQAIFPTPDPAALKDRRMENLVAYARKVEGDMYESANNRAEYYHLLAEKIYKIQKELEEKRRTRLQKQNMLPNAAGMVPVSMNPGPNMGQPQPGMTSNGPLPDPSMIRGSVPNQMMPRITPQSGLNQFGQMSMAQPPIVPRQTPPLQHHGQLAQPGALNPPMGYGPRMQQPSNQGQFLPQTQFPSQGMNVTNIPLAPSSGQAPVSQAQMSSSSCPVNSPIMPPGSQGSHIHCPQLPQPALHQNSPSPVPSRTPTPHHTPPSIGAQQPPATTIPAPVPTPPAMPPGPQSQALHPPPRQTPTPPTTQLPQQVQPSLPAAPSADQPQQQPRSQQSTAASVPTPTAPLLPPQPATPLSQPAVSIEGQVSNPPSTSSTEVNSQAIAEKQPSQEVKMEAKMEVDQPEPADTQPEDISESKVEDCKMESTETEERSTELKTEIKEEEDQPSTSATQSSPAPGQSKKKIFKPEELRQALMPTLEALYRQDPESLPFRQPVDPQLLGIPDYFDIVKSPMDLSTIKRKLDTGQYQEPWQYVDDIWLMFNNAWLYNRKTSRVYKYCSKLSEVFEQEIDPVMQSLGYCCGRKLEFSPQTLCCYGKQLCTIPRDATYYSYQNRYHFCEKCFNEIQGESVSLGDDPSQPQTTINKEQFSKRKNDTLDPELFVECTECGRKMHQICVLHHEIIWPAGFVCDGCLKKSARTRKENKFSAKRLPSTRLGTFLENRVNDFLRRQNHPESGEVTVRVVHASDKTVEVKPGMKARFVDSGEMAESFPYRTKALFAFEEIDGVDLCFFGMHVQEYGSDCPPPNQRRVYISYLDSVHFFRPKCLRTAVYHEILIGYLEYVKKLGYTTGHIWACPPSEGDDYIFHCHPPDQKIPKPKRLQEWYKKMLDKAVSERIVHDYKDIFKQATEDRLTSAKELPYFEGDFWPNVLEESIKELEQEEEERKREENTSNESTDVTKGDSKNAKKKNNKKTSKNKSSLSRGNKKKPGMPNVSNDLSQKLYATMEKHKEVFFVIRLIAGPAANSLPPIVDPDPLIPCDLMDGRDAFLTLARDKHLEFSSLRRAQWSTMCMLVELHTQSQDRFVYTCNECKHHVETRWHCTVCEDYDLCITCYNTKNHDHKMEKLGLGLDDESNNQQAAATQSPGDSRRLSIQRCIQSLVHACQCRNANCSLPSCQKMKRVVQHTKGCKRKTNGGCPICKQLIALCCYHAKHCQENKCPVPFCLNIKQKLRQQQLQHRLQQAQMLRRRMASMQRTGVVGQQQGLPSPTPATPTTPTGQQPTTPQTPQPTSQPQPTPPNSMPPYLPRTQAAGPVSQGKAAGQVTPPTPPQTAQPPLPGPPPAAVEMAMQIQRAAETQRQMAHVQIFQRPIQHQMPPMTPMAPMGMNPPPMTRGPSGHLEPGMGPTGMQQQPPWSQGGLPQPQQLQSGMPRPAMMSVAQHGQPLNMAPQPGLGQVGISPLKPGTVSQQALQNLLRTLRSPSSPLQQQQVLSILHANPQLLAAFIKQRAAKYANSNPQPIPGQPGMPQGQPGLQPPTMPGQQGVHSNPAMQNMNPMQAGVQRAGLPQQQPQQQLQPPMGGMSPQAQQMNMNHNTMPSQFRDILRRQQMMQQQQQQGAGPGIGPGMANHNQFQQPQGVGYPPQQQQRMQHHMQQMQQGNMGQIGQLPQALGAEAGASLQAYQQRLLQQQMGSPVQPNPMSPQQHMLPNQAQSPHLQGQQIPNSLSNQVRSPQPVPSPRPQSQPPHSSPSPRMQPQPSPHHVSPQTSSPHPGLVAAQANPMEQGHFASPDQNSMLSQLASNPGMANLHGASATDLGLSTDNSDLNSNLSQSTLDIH
UniProt Q92793: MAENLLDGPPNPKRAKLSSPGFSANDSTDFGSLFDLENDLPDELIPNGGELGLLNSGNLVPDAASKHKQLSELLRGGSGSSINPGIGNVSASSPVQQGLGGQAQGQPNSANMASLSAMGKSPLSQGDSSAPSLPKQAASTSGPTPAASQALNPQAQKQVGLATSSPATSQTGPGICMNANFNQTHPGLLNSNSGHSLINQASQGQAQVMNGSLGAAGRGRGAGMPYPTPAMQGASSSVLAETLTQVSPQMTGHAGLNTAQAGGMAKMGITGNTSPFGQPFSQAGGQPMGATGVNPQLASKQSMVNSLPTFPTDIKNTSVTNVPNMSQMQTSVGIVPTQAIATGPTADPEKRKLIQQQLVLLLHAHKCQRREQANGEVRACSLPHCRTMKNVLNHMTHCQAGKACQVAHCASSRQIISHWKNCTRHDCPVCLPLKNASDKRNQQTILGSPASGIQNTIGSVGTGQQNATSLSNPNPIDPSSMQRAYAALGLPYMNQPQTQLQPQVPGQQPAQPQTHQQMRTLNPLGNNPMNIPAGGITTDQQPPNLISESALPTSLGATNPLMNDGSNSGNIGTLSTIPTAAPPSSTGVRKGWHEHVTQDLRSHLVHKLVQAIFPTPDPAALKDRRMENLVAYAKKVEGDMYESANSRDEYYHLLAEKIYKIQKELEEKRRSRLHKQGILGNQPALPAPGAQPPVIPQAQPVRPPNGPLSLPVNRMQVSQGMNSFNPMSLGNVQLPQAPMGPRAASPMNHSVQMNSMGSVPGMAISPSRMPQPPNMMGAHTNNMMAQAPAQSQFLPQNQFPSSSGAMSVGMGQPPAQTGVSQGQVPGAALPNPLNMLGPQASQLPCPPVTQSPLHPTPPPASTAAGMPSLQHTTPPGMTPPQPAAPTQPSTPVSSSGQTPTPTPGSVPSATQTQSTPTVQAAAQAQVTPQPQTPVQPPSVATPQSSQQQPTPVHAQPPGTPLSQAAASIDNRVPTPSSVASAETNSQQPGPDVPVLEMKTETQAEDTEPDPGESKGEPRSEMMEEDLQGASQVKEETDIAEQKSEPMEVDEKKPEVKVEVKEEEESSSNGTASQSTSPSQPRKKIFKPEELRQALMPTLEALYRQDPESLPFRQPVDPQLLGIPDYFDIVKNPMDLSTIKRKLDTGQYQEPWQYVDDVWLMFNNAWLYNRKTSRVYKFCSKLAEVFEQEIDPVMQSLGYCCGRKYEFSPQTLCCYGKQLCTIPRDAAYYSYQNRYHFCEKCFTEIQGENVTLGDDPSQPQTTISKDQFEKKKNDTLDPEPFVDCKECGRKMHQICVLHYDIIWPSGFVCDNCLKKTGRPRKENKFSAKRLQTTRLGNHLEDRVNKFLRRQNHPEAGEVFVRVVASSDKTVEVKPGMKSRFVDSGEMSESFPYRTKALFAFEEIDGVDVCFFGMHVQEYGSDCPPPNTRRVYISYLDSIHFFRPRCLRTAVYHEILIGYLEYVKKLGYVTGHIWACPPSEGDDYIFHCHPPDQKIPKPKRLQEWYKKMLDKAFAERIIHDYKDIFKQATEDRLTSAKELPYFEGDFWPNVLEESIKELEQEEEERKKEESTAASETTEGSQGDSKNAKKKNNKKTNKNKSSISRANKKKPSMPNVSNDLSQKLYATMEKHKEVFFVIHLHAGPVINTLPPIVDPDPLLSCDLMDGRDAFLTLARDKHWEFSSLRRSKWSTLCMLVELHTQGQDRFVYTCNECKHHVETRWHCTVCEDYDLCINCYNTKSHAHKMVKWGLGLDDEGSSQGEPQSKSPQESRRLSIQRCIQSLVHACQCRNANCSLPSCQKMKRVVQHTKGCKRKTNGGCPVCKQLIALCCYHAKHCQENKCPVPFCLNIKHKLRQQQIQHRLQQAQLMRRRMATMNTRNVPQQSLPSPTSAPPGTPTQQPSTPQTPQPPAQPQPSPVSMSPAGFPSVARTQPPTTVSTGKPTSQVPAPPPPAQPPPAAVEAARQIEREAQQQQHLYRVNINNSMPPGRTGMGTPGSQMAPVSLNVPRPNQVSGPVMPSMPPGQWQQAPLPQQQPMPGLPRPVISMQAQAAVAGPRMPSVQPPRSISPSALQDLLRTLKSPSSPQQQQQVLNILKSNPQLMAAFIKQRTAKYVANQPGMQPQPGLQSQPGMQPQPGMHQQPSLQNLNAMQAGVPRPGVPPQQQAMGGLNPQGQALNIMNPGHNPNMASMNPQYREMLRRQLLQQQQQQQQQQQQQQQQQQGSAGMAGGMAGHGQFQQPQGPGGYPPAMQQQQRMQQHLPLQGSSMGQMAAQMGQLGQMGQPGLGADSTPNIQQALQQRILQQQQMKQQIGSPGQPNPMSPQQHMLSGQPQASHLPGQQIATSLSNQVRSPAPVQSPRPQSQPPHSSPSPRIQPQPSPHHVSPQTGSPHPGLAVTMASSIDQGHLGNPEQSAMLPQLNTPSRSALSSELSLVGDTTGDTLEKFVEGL

T1: His-HA-RORβ (isoform 1) (human, UniProt Q92753-1 1-459)
T1 construct: Retinoic acid receptor-related orphan receptor beta (RORβ), human, isoform 1 (RORβ1); the printed residue numbers (K11 to K459 at the C-terminus of the LBD) fit the 459-residue form; Same plasmid used in TC28a2 (RIME) and HEK293T (co-IP, IP-MS); also called HA-tagged RORβ; RORβ WT; source: TC28a2 or HEK293T, transiently transfected (pCMV6), in lysate
T1 sequence (looked up): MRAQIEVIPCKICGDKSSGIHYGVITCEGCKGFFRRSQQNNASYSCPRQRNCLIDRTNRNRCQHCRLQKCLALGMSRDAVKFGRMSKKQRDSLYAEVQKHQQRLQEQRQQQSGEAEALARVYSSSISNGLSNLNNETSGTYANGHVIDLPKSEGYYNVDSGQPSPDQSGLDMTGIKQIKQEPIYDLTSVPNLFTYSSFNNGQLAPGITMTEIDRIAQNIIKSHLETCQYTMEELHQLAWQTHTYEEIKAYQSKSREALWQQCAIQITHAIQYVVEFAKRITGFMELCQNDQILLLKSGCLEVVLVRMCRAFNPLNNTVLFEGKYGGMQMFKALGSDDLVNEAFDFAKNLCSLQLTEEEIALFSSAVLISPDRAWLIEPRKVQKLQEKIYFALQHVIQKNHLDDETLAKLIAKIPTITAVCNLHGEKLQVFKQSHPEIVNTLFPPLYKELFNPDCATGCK

T2: endogenous RORβ of Y79 human retinoblastoma cells (human (endogenous in Y79)) (UniProt Q92753)
T2 sequence: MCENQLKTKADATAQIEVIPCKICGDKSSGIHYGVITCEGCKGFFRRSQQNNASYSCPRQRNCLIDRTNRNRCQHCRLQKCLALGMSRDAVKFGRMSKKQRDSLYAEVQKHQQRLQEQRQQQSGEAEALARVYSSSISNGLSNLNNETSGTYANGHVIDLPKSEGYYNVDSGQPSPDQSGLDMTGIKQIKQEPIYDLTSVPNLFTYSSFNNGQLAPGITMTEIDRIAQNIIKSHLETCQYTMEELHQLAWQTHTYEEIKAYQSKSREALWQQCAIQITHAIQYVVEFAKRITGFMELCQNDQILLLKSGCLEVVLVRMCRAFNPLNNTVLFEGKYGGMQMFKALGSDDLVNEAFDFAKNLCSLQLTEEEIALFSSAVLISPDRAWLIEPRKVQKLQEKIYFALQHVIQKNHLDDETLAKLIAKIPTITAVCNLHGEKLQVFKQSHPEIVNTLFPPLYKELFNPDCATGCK


Key:
His-HA-RORβ (isoform 1) = target: T1, His-HA-RORβ (isoform 1); test: affinity purification with mass spectrometry; RIME: HA-RORβ transfected in TC28a2 chondrocytes, 1% formaldehyde crosslinking in cells, nuclear lysate, anti-HA magnetic beads, HA-peptide-blocked control; also with SIRT1 activator SRT2104 against DMSO
[1] = target: T2, endogenous RORβ of Y79 human retinoblastoma cells (human (endogenous in Y79)); test: affinity purification with mass spectrometry; standard IP-MS without crosslinking, endogenous RORβ immunoprecipitated from Y79 human retinoblastoma cells, n=3

Row | binding (His-HA-RORβ (isoform 1)) | binding [1] | Molecule
1 | binds |  | lysine acetyltransferase p300 (EP300), endogenous in TC28a2 (from UniProt Q09472 1-2414) (enzyme)
2 |  | binds | CREBBP, endogenous in Y79 human retinoblastoma cells (from UniProt Q92793 1-2442) (enzyme)
3 | binds |  | PIAS1, endogenous in TC28a2 (enzyme, human (endogenous in TC28a2), UniProt O75925 1-651, looked up, E3 SUMO-protein ligase PIAS1, endogenous in TC28a2 human chondrocytes; source: endogenous, TC28a2 nuclear lysate) MADSAELKQMVMSLRVSELQVLLGYAGRNKHGRKHELLTKALHLLKAGCSPAVQMKIKELYRRRFPQKIMTPADLSIPNVHSSPMPATLSPSTIPQLTYDGHPASSPLLPVSLLGPKHELELPHLTSALHPVHPDIKLQKLPFYDLLDELIKPTSLASDNSQRFRETCFAFALTPQQVQQISSSMDISGTKCDFTVQVQLRFCLSETSCPQEDHFPPNLCVKVNTKPCSLPGYLPPTKNGVEPKRPSRPINITSLVRLSTTVPNTIVVSWTAEIGRNYSMAVYLVKQLSSTVLLQRLRAKGIRNPDHSRALIKEKLTADPDSEIATTSLRVSLLCPLGKMRLTIPCRALTCSHLQCFDATLYIQMNEKKPTWVCPVCDKKAPYEHLIIDGLFMEILKYCTDCDEIQFKEDGTWAPMRSKKEVQEVSASYNGVDGCLSSTLEHQVASHHQSSNKNKKVEVIDLTIDSSSDEEEEEPSAKRTCPSLSPTSPLNNKGILSLPHQASPVSRTPSLPAVDTSYINTSLIQDYRHPFHMTPMPYDLQGLDFFPFLSGDNQHYNTSLLAAAAAAVSDDQDLLHSSRFFPYTSSQMFLDQLSAGGSTSLPTTNGSSSGSNSSLVSSNSLRESHSHTVTNRSSTDTASIFGIIPDIISLD
